Earlier results in patent US20100209368A1, “METHOD AND PREPARATION FOR TREATING BALDNESS” (priority 2009, published 2010).
At least one structure is not confirmed: it was looked up by name or label, or the drawing left a doubt.

Conditions: within certain regions of the scalp

Nc1cc(N2CCCCC2)nc(N)[n+]1[O-] [minoxidil]
increase in hair count: modest, generally short-term increase
